For at least one compound, name, drawing or mass did not settle the structure.
Target: AMPK
Test: AMPK activation, enzyme-linked immunosorbent assay
Format: biochemical
Protocol: Compounds were assayed for their ability to activate AMPK using an enzyme-linked immunosorbent assay. Reagents and procedures for measuring AMPK activation are well known and kits for AMPK activation assays are commercially available.

COc1ccc(C(=O)C2CCN(C(=O)c3ccc(C(=O)N[C@@H]4CCN(Cc5ccc(N6CCCC6)cc5)C[C@H]4F)cn3)CC2)cc1 (relative stereo) [Compound 352, N-((trans)-3-fluoro-1-(4-(pyrrolidin-1-yl)benzyl)piperidin-4-yl)-6-(4-(4-methoxybenzoyl)piperidine-1-carbonyl)nicotinamide]
EC50: < 500 nM

COc1ccc(C(=O)C2CCN(C(=O)c3ccc(C(=O)N[C@@H]4CCN(Cc5ccc(OC(F)(F)F)cc5)C[C@@H]4F)cn3)CC2)cc1 (relative stereo) [Compound 461, N-((cis)-3-fluoro-1-(4-(trifluoromethoxy)benzyl)piperidin-4-yl)-6-(4-(4-methoxybenzoyl)piperidine-1-carbonyl)nicotinamide]
EC50: < 500 nM
